{"source": "patent US9975901B2", "key": {"[1]": {"assay": "not given", "remark": "listed apart in the source"}, "[2]": {"assay": "not given", "remark": "listed apart in the source"}}, "note": "Where two headings read alike, the source gives them in different places.", "data": [{"compound": "CCNC(=O)C[C@@H]1N=C(c2ccc(Cl)cc2)c2cc(OC)ccc2-n2c(C)nnc21", "values": [{"measurement": "description (colour) after light stressing", "setting": "exposed photostability sample, initial \"white to almost white solid\"", "result": "white and slightly yellow solid"}, {"measurement": "total impurity profile", "setting": "photostability exposed sample", "result": 0.44, "unit": "%"}, {"measurement": "chemical and physical stability after storage", "setting": "[1]; 3 months at 50° C./AmbH, desiccated and non-desiccated", "result": "both chemical and physical stability"}, {"measurement": "chemical and physical stability after storage", "setting": "[1]; 6 months at 40° C./75% RH, desiccated and non-desiccated", "result": "both chemical and physical stability"}, {"measurement": "chemical and physical stability after storage", "setting": "[1]; 12 months at 25° C./60% RH, non-desiccated", "result": "both chemical and physical stability"}, {"measurement": "chemical and physical stability after storage", "setting": "[1]; 12 months at 30° C./65% RH, desiccated and non-desiccated", "result": "both chemical and physical stability"}, {"measurement": "Water content increase", "setting": "[1]; 25° C./60% RH after 12 months without desiccant", "result": 0.12, "unit": "%"}, {"measurement": "Water content increase", "setting": "[1]; 30° C./65% RH after 12 month with and without desiccant", "result": 0.10, "unit": "%"}, {"measurement": "Water content increase", "setting": "[1]; 50° C./AmbH without desiccant", "result": 0.15, "unit": "%"}, {"measurement": "change in solid state form (XRPD)", "setting": "[1]; all storage conditions", "result": "no change"}, {"measurement": "changes in description, content, drug-related impurities content and chiral purity", "setting": "[1]; all storage conditions", "result": "No significant changes"}, {"measurement": "disproportionation in tablet dosage form", "setting": "[2]; formulated with certain commonly used excipients (e.g. disintegrant croscarmellose sodium)", "result": "disproportionation may occur"}, {"measurement": "decomposition in standard stability studies", "setting": "[2]; salt alone", "result": "did not decompose"}]}]}
